A weaker result is weaker than the reference pair of the same experiment. Where a protein sequence is shown, tags need not be part of it. For some assays here: The exact form of at least one protein or probe is not confirmed.

The source of these data is publication PMC5343656, “The human mitochondrial transcription factor A is a versatile G-quadruplex binding protein”.

For one series, the target named is T1, TFAM HMG2-Cter (human) (UniProt Q00059).
T1 sequence (looked up): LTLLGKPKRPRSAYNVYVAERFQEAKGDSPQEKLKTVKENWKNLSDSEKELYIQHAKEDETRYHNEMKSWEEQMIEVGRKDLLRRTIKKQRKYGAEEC
The series is described as follows: EMSA. Conditions: weak band, smearing; EMSA: 25 mM Tris-HCl pH 7.0, 90 mM NaCl, 1 mM DTT, 3% glycerol, 0.01% Tween20, 30 min, room temperature; G4s mostly prefolded in 10 mM cacodylate pH 6.5, 100 mM KCl; recombinant protein; residues 149-246; label: 5' 32P or SybrGold; folded or branched DNA.

The target of a further series is T2, TFAM (mature) (human) (UniProt Q00059).
T2 sequence (looked up): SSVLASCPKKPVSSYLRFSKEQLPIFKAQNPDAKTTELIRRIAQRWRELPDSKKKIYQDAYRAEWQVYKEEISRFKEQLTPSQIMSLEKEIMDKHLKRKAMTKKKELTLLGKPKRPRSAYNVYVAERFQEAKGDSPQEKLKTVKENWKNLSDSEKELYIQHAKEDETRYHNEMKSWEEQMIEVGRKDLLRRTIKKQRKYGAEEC
Put plainly: competition with a labelled probe. The following applies: vs 32P-G4-LSP22H, singly-bound not displaced at 375-fold; EMSA: 25 mM Tris-HCl pH 7.0, 90 mM NaCl, 1 mM DTT, 3% glycerol, 0.01% Tween20, 30 min, room temperature; G4s mostly prefolded in 10 mM cacodylate pH 6.5, 100 mM KCl; recombinant protein; residues 43-246; protein details: C-terminal 6xHis; label: 5' 32P (EMSA).

Consider GTTAGTTGGGGGGTGACTGTTA [G4-LSP22H], for which the binding result with TFAM HMG2-Cter (human) is reported as “binds more weakly”.

In the case of “GTTAGTTGGGGGGTGACTGTTA (double strand) [dsLSP22]”, in the series with TFAM (mature) (human), the binding result is given as “binds more weakly”.
